Earlier results as cited in publication PMC4335872, “Pharmacokinetic-Pharmacodynamic Analysis of Spiroindolone Analogs and KAE609 in a Murine Malaria Model” (Antimicrobial Agents and Chemotherapy, 2015).

Set-up: method as in PMID 24089407
Conditions: cited from earlier work

In the case of CCN(CC)CCCC(C)Nc1ccnc2cc(Cl)ccc12 (stereo not shown) [chloroquine], the “PK-PD relationship (type of killing)” value is listed as “time-dependent killing”.
